Reference: ChEMBL document CHEMBL5338817, “Discovery of Exceptionally Potent, Selective, and Efficacious PROTAC Degraders of CBP and p300 Proteins” (J Med Chem, 2023)
Active and inactive are the calls of the source. The calls are words filed in the database; no cut-off is given here.

The chains behind the UniProt entries cited, without tags or fusion partners.
UniProt Q09472, whole entry: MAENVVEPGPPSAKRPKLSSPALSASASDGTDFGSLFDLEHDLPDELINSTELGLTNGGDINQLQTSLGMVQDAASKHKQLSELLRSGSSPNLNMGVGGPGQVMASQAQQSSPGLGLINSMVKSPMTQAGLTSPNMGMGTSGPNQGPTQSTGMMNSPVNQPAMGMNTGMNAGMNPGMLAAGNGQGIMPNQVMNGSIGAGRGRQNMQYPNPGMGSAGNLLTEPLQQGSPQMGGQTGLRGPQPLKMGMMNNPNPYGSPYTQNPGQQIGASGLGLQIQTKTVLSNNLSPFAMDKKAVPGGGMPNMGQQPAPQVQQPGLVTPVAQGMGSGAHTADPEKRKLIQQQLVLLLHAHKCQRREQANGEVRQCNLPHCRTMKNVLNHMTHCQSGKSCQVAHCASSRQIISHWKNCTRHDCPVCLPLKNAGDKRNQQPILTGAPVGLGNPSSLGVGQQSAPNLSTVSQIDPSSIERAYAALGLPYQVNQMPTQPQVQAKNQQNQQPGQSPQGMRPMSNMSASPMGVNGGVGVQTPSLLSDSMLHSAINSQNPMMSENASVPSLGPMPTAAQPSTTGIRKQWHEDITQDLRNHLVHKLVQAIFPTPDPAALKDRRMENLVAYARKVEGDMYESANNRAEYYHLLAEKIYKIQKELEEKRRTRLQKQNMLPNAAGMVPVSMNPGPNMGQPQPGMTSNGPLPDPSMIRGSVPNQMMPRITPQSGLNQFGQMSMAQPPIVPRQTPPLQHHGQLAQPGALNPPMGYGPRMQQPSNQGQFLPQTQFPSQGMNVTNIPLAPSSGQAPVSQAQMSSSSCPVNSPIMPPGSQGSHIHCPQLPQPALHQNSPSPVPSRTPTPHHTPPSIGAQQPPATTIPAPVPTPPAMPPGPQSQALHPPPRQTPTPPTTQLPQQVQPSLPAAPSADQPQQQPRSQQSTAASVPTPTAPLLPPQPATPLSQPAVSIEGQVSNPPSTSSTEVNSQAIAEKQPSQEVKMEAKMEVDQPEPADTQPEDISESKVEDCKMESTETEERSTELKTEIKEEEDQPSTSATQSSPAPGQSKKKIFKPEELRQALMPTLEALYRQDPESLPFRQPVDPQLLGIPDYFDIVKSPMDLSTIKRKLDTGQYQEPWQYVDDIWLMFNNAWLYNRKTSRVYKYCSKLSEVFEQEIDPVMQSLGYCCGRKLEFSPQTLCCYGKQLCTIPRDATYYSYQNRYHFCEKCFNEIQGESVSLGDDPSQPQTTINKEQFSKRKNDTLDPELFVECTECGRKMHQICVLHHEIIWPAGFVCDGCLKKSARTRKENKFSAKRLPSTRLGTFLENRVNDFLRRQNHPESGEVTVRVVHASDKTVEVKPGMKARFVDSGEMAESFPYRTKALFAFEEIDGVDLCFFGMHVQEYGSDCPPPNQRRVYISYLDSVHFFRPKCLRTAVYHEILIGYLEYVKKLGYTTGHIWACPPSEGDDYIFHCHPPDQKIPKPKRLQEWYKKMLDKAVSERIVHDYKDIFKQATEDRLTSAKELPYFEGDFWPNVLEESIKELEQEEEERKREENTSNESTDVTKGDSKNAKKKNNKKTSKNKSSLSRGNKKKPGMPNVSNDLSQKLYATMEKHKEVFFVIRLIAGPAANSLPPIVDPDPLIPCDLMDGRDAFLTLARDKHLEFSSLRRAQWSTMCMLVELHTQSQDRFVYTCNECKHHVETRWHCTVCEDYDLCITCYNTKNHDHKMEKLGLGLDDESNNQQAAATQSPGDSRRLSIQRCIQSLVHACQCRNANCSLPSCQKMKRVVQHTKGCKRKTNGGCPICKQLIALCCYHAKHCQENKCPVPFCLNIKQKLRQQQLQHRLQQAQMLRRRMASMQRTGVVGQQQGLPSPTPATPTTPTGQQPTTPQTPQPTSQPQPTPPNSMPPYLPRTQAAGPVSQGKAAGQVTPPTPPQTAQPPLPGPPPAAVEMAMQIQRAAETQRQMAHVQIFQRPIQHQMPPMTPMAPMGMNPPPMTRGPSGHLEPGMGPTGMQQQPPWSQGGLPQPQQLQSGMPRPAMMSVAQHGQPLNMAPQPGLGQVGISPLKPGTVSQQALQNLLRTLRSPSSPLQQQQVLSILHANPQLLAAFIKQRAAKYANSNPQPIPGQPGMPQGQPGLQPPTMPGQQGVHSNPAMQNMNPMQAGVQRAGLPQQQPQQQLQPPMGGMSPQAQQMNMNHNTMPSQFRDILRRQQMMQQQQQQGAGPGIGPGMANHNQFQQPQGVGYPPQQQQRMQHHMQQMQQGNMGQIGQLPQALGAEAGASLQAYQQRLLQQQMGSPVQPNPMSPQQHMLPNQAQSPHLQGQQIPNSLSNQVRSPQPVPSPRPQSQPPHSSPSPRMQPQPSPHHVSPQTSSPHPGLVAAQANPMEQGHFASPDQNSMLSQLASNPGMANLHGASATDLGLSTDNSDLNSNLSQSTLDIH

Target: Histone acetyltransferase p300 (Homo sapiens, UniProt Q09472)
Assay: Induction of p300 degradation in human RS4-11 cells at 1 uM incubated for 3 hrs by Proteomics analysis
Type: cell-based

- Activity: inactive
SMILES: CNC(=O)c1ccc(-c2cc3cccc(-c4nn(C5CCOCC5)c5c4CN(C(C)=O)CC5)c3cn2)cn1
